At least one compound was matched to its structure with a doubt left.
Legend:
[1] = system: RPMI-8226 myeloma cells; experiment: Multiple Myeloma Xenograft Study; type: in vivo, mice; conditions: RPMI-8226 multiple myeloma xenograft, oral 200 mg/kg BID 28 days, vs vehicle, P-value <0.01 (FIG. 17)
[2] = system: MM1S cells and RPMI-8226 cells; experiment: Treatment of Multiple Myeloma Cells with a Combination of Drugs; type: cell-based; conditions: 72 hours, Cell Titer Glo, combination indices (FIG. 18)
[3] = system: P493-6 (myc "on") cells; experiment: Cell Proliferation Assay; type: cell-based; conditions: read-out: Cell prolif P493 72 h IC50, P493-6 cells
Experimental: P493-6 (myc “on”) cells were maintained in growth media (RPMI-1640, 10% FBS, 2 mM glutamine, 100 units/ml Penicillin and 100 μg/ml streptomycin) at 37° C. with 5% CO2. For compound assay, P493-6 cells were plated in 96-well V-bottom plates on the day of compound addition in 50 μl of growth media at a cell density of 200,000 cells/ml (10,000 cells/well). Compounds were serially diluted in 100% DMSO at 200-times the final concentration. Compounds were diluted 100-fold into growth media and then 50 μl of this mixture was added to cell plates making the final concentration of DMSO 0.5%. Cells were incubated with compound for 72 hrs at 37° C. with 5% CO2 and analyzed for antiproliferative effects either by Cell Titer Glo (Promega) or FACS analysis using the Viacount (Millipore) kit on the Guava instrument.

[4] = system: H2122 lung adenocarcinoma cells; experiment: Lung Adenocarcinoma Xenograft Efficacy Study; type: in vivo, mice; conditions: oral 200 mg/kg BID 23 days, vs vehicle, P-value <0.01 (FIG. 12)

O=C(Cc1cccc(OC(F)(F)F)c1)Nc1ccc(CCCCc2nnc(NC(=O)Cc3ccccn3)s2)nn1 [Compound 670]
tumor size [1]: reduced tumor size | anti-tumor effect in combination with dexamethasone [2]: synergizes | anti-tumor effect in combination with pomalidomide [2]: synergizes | IC50 [3]: 30 nM | tumor size [4]: reduced tumor size
